{"source": "PubChem BioAssay AID504834", "about": "(National Center for Advancing Translational Sciences (NCATS), 2011)", "note": "The whole screen tested about 320,000 compounds, of which about 22,000 (6.9%) were called active. The inconclusive results got no clear call from the source; some entries with a clear call stand among them for comparison. Calls follow the shape of the dose curve; as a rule, active = well fitted inhibition curve with a large enough effect; inconclusive = small, poorly fitted or top-dose-only effect, or another doubt; inactive = no such curve, though single readings can be large or run the other way. Potencies of inconclusive entries are doubtful fits and often do not repeat. % is scaled to controls: 0 for no effect and ±100 for the full control effect; potency is read from the fitted curve at half-maximal effect."}
{"experiment": "Primary qHTS for delayed death inhibitors of the malarial parasite plastid, 96 hour incubation", "settings": "P. falciparum luciferase reporter growth; series mostly up to 28.7 µM", "how_it_was_run": "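Erythrocytes infected with luciferase-expressing P. falciparum were dispensed at 2% hematocrit and 0.05% parasitemia (final), then incubated with compounds 96 hours at 37 C in 5% CO2. Luminescence after detection reagent addition reported growth.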"}
{"smiles": "CC(CCN1CCN=C1Nc1ccccc1)c1ccccc1", "note": "(configuration not stated)", "Potency": "inconclusive: 18.5 µM [inhibitor, single point]"}
{"smiles": "CC(C)(C)c1ccc(OCCNC(=S)NC(=O)c2cccnc2)cc1", "Potency": "inactive"}
{"smiles": "CCOc1ccc(NC(=O)CC2C(=O)N(C)C(=S)N2Cc2ccco2)cc1", "note": "(configuration not stated)", "Potency": "inconclusive: 18.5 µM [inhibitor, single point]"}
{"smiles": "Nc1cccc(NC(=O)c2ccco2)c1", "Potency": "inconclusive: 4.15 µM [inhibitor, single point]"}
{"smiles": "Cc1ccccc1C(=O)Nc1cc(-c2cc(C(C)(C)C)oc2C)nn1C", "Potency": "inconclusive: 1.85 µM [inhibitor, partial curve, poor fit]"}
{"smiles": "CCCCn1nc(C(=O)N[C@@H](CCSC)c2nc3ccccc3[nH]2)c2ccccc2c1=O", "Potency": "active: 11.7 µM"}
{"smiles": "Nc1nc(CN2CCN(c3ccc(F)cc3)CC2)nc(N2CCCc3ccccc32)n1", "Potency": "inconclusive: 18.5 µM [inhibitor, single point]"}
{"smiles": "c1ccc2c(-c3[nH]ncc3CNCCCn3ncc4ccccc43)cccc2c1", "Potency": "inactive"}
{"smiles": "COC(=O)c1cc(=O)n(-c2c(Cl)cc(C(F)(F)F)cc2Cl)[nH]1", "Potency": "inconclusive: 11.7 µM [inhibitor, partial curve, poor fit]"}
{"smiles": "O=C(NC(=S)N1CCOCC1)c1cn(-c2ccccc2)nc1-c1ccccc1", "Potency": "inactive"}
{"smiles": "Cc1cc2c(cc1S(=O)(=O)CCC(=O)NCc1ccccc1)OCC(=O)N2", "Potency": "inactive"}
{"smiles": "CCCC(=O)N(Cc1cc(=O)[nH]c2ccccc12)c1ccccc1C", "Potency": "inconclusive: 11.7 µM [inhibitor, partial curve, poor fit]"}
{"smiles": "NC(=S)Nc1ccc(S(=O)(=O)c2ccc(NC(N)=S)cc2)cc1", "Potency": "inactive"}
{"smiles": "Cc1c(C(=O)N2CCN(c3ccccn3)CC2)cccc1[N+](=O)[O-]", "Potency": "inconclusive: 7.38 µM [inhibitor, partial curve, poor fit]"}
{"smiles": "NCCS", "Potency": "inactive"}
{"smiles": "COc1cc([C@@H]2c3cc4c(cc3[C@@H](O)[C@@H](CO)[C@@H]2CO)OCO4)cc(OC)c1O[Si](C)(C)C(C)(C)C", "Potency": "inconclusive: 13.1 µM [inhibitor, single point]"}
{"smiles": "COc1ccc(NC(=S)N(CCCN2CCC(C)CC2)Cc2cccs2)cc1Cl", "Potency": "inactive"}
{"smiles": "CC(C)CC(COCc1ccc(Cl)cc1)N1CCN(C(=O)c2ccc(C(F)(F)F)cc2)CCC1=O", "note": "(configuration not stated)", "Potency": "inconclusive: 14.7 µM [inhibitor, single point]"}
{"smiles": "COc1ccc(C(CCNCc2ccc(OC)c(OC)c2)c2ccc(F)cc2)cc1", "note": "(configuration not stated)", "Potency": "inconclusive: 18.5 µM [inhibitor, single point]"}
{"smiles": "C=CCn1c2ccccc2c2nnc(SCCN3CCCCC3)nc21", "Potency": "active: 10.4 µM"}
{"smiles": "Cn1c(SCC(=O)N2CCCCCC2)nc2c(c1=O)SCC2", "Potency": "active: 4.65 µM"}
{"smiles": "O=C(c1ccco1)N1CCN(Cc2csc(-c3ccccc3Cl)n2)CC1", "Potency": "inactive"}
{"smiles": "COC(=O)c1sc(NC(=S)NC(=O)c2ccccc2C)nc1C", "Potency": "inconclusive: 11.7 µM [inhibitor, single point]"}
{"smiles": "Cc1onc(-c2ccccc2)c1CNS(=O)(=O)c1ccccc1[N+](=O)[O-]", "Potency": "inconclusive: 7.38 µM [inhibitor, partial curve, poor fit]"}
{"smiles": "O=C(Nc1cccc(Cl)c1N1CCOCC1)c1cccnc1", "Potency": "active: 9.28 µM"}
{"smiles": "O=C(COc1cccc2c1CCN(Cc1ccccc1F)C2=O)N1CCOCC1", "activity change, negative = inhibition": "inactive: -40.8% [at 1.15 µM]"}
{"smiles": "Cc1ccc(-n2c(SCC(=O)NCc3ccco3)nc3sc4c(c3c2=O)CC(C)(C)SC4)cc1", "Potency": "inconclusive: 18.5 µM [inhibitor, single point]"}
{"smiles": "O=C(NNC(=S)Nc1ccccc1)Nc1ccccc1", "Potency": "inactive"}
{"smiles": "O=C(O)C1CN2CCC1CC2", "note": "(configuration not stated)", "Potency": "inconclusive: 11.7 µM [inhibitor, partial curve]"}
{"smiles": "COc1ccccc1N1CCN(C2CCCN(S(=O)(=O)c3cccc(Cl)c3)C2)CC1", "note": "(configuration not stated)", "Potency": "inconclusive: 18.5 µM [inhibitor, single point]"}
{"smiles": "CO/N=C/c1ccc(N2CCOCC2)c([N+](=O)[O-])c1", "Potency": "inactive"}
{"smiles": "O=C(O)c1cc2cc(Cl)ccc2oc1=O", "Potency": "inconclusive: 7.38 µM [inhibitor, partial curve, poor fit]"}
{"smiles": "Cc1cc(C)c2c(N=NN3CCOCC3)[nH]nc2n1", "Potency": "active: 4.65 µM"}
{"smiles": "COc1ccc(CCN(C(=O)C(F)(F)F)C(C(=O)NC2CCCC2)c2cccs2)cc1OC", "note": "(configuration not stated)", "Potency": "active: 7.38 µM"}
{"smiles": "O=C(Nc1cc(S(=O)(=O)N2CCCC2)ccc1Cl)C1=COCCO1", "Potency": "inconclusive: 0.738 µM [inhibitor, partial curve, poor fit]"}
{"smiles": "O=c1c2ccccc2c(-c2ccc(F)cc2)nn1-c1ccc(C(F)(F)F)cc1", "Potency": "inconclusive: 0.037 µM [inhibitor, full curve, poor fit]"}
{"smiles": "COc1ccc(C(=O)NCCS(=O)(=O)N2CCOCC2)cc1", "Potency": "inactive"}
{"smiles": "Cc1nc(Nc2cccc(O)c2)c2oc3ccccc3c2n1", "Potency": "inactive"}
{"smiles": "C=CCNc1sc(C(=O)c2cccs2)c(N)c1C#N", "Potency": "inconclusive: 10.4 µM [inhibitor, single point]"}
{"smiles": "O=C(NCCCN1CCOCC1)c1cc(-c2ccc(Cl)s2)nc2ccccc12", "Potency": "inconclusive: 8.28 µM [inhibitor, partial curve]"}
{"smiles": "CC1(C)CC(=O)c2sc(NS(=O)(=O)c3ccc([N+](=O)[O-])cc3)nc2C1", "Potency": "inconclusive: 18.5 µM [inhibitor, single point]"}
{"smiles": "CCCCn1c(CN2CCN(c3cccc(Cl)c3)CC2)nc2c1c(=O)[nH]c(=O)n2C", "Potency": "inactive"}
{"smiles": "CC1CN(C(=O)Cn2cc(SCC(=O)N3CCOCC3)c3ccccc32)CC(C)O1", "note": "(configuration not stated)", "Potency": "inconclusive: 18.5 µM [inhibitor, single point]"}
{"smiles": "CCOC(=O)Cc1csc(NC(=O)CC)n1", "Potency": "inactive"}
{"smiles": "CC(=O)c1ccc(N2CCN(c3ncc(C(F)(F)F)cc3Cl)CC2)cc1", "Potency": "inconclusive: 18.5 µM [inhibitor, single point]"}
{"smiles": "CC(C)(C)c1ccc(-c2nc(-c3ccncc3)no2)cc1", "Potency": "inconclusive: 18.5 µM [inhibitor, single point]"}
{"smiles": "Cc1cc(C)c(S(=O)(=O)NCC(c2ccco2)N2CCc3ccccc3C2)c(C)c1", "note": "(configuration not stated)", "Potency": "inconclusive: 10.4 µM [inhibitor, single point]"}
{"smiles": "Cc1cccc(N2C(=O)CC(Sc3nc(C)cc(C)n3)C2=O)c1", "note": "(configuration not stated)", "Potency": "inconclusive: 0.0029 µM [inhibitor, full curve, poor fit]"}
{"smiles": "CCOC(=O)c1c(C)[nH]c(C)c1S(=O)(=O)N(C)CC(=O)Nc1ccccc1OC", "Potency": "inconclusive: 14.7 µM [inhibitor, single point]"}
{"smiles": "Cc1ccc(C(=O)Nc2ccc(Cc3ccncc3)cc2)cc1[N+](=O)[O-]", "Potency": "inconclusive: 9.28 µM [inhibitor, single point]"}
{"smiles": "CC(=O)c1ccc(N2CCN(C(=S)NCc3ccco3)CC2)cc1", "Potency": "active: 13.1 µM"}
{"smiles": "CC(Sc1cccc[n+]1[O-])C(=O)Nc1ccc([N+](=O)[O-])cc1Cl", "note": "(configuration not stated)", "Potency": "inactive"}
{"smiles": "COc1ccc(Cl)c2sc(N3CCN(C(C)=O)CC3)nc12", "Potency": "inactive"}
{"smiles": "CC(Oc1ccc2ccccc2c1)C(=O)NNC(=O)Nc1ccccc1", "note": "(configuration not stated)", "Potency": "inconclusive: 3.7 µM [inhibitor, partial curve, poor fit]"}
{"smiles": "CCN(CC(=O)Nc1ccc(OC)cc1)CC(=O)Nc1cccc(C#N)c1", "Potency": "inactive"}
{"smiles": "Cc1ccc(OCCCn2ccnc2)cc1C", "Potency": "inactive"}
{"smiles": "CCC(C)(C)NC(=O)c1cc(S(=O)(=O)N2CCc3ccccc32)cn1C", "Potency": "inconclusive: 18.5 µM [inhibitor, single point]"}
{"smiles": "CCOc1cccc(/C=C2\\NC(=S)N(c3ccccc3)C2=O)c1O", "Potency": "inactive"}
{"smiles": "CCN1CCN(c2ccc(S(=O)(=O)N3CCCCC3)cc2NC(=O)c2ccc(F)cc2)CC1", "Potency": "active: 9.28 µM"}
{"smiles": "O=C1C2C3C=CC(C3)C2C(=O)N1Nc1c(Cl)cc(Cl)cc1Cl", "note": "(configuration not stated)", "Potency": "inactive"}
{"smiles": "Oc1ccc(C2Nc3cccc4cccc(c34)N2)cc1", "Potency": "active: 10.4 µM"}
{"smiles": "CN1C(=O)c2ccccc2Sc2ccc(C(=O)N3CCC4(CC3)OCCO4)cc21", "Potency": "inconclusive: 0.294 µM [inhibitor, full curve]"}
{"smiles": "O=C(NCC1COc2ccccc2O1)c1ccc(NC(=O)C(c2ccccc2)c2ccccc2)cc1", "note": "(configuration not stated)", "Potency": "inconclusive: 16.5 µM [inhibitor, single point]"}
{"smiles": "CCCCn1c(=O)[nH]c(=O)c2c1nc(COc1ccc(C#N)cc1)n2CCC", "Potency": "inconclusive: 5.22 µM [inhibitor, partial curve]"}
{"smiles": "COc1ccc(/C=N/NC(=O)Cc2csc(Nc3cccc(C(F)(F)F)c3)n2)c(OC)c1", "Potency": "inconclusive: 18.5 µM [inhibitor, single point]"}
{"smiles": "CC1(OC(=O)C2CCCC2)C(=O)C=C2C=C(c3ccsc3)N(Cc3ccco3)C=C2C1=O", "note": "(configuration not stated)", "Potency": "active: 13.1 µM"}
{"smiles": "COc1ccc(C2CC(=O)c3cnc(Nc4cc(C)cc(C)c4)nc3C2)cc1", "note": "(configuration not stated)", "Potency": "inconclusive: 2.62 µM [inhibitor, full curve, poor fit]"}
{"smiles": "Nc1sc(-c2ccccc2)n[n+]1Cc1cccc2cccnc12", "Potency": "inconclusive: 13.1 µM [inhibitor, partial curve, poor fit]"}
{"smiles": "O=C(c1cc(-c2ccccc2)nc2ccccc12)N1CCCc2ccccc21", "Potency": "inconclusive: 18.5 µM [inhibitor, single point]"}
{"smiles": "Cc1ccc(S(=O)(=O)N2CCCC2C(=O)NCc2ccncc2)cc1", "note": "(configuration not stated)", "Potency": "inconclusive: 18.5 µM [inhibitor, single point]"}
{"smiles": "Cc1cc([N+](=O)[O-])ccc1NC(=O)CCC(=O)N1CCCC1", "Potency": "inconclusive: 10.4 µM [inhibitor, single point]"}
{"smiles": "O=C(NNC1=C(C(=O)C(F)(F)F)CCC1)c1ccc(Cl)cc1", "Potency": "active: 2.94 µM"}
